Measured data: PubChem BioAssay AID743121 (NCATS, 2013)

Test: 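Genes whose silencing strengthens cell killing by camptothecin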 (primary screen)
Cells: MDA-MB-231 cells, a human breast cancer line
Reagents: single siRNA against human genes, 20 nM siRNA (0.8 pmol per well)
Time to read-out: 120 h (drug added 48 h after transfection, read 72 h later)
Treatment: camptothecin 20 nM (about EC30) for 72 h; vehicle 0.1% DMSO in parallel plates
Measurement: 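Cell viability by ATP luminescence (CellTiter-Glo) as % of non-targeting siRNA wells, and the log2 ratio of viability without drug over viability with camptothecin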
Scale: log2 vehicle/camptothecin viability: higher = stronger sensitisation to camptothecin
Rule for the call: 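Active genes have an RSA gene-level p-value below 0.001, computed from the ratios of their separate siRNAs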
Shown is a random part of about 26,000 reagents tested. Of all reagents, 167 (0.63%) are marked active. 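Calls are per gene from RSA p-values that are not deposited; an individual active-marked siRNA can sensitise only weakly.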 The numbers tell different reagents against one gene apart. Further read-outs or replicates are left out here.

log2 vehicle/camptothecin viability, by gene and reagent
TBX3 (T-box transcription factor 3): #1 -0.361 inactive; #2 0.0694 inactive; #3 -0.371 inactive; #4 -0.192 inactive
TWF2 (twinfilin actin binding protein 2): #1 -0.0938 inactive; #2 -0.599 inactive; #3 -1 inactive; #4 0.131 inactive
TRIP13 (thyroid hormone receptor interactor 13): #1 0.144 inactive; #2 -0.217 inactive; #3 -0.45 inactive; #4 0.138 inactive
PTGDR (prostaglandin D2 receptor): #1 -0.0252 inactive; #2 -0.708 inactive; #3 -0.21 inactive; #4 -0.0981 inactive
PI4KA (phosphatidylinositol 4-kinase alpha): #1 -0.29 inactive; #2 -0.245 inactive; #3 -0.757 inactive; #4 -0.272 inactive
ADAM22 (ADAM metallopeptidase domain 22): #1 -0.341 inactive; #2 0.302 inactive; #3 -0.402 inactive
KMT5A (lysine methyltransferase 5A): #1 0.171 inactive; #2 0.0271 inactive; #3 -0.686 inactive
TNFRSF10B (TNF receptor superfamily member 10b): #1 0.13 inactive; #2 -0.0638 inactive; #3 0.0325 inactive; #4 0.0314 inactive
FAM234B (family with sequence similarity 234 member B): #1 -0.0619 inactive; #2 -0.25 inactive; #3 -0.25 inactive; #4 0.0888 inactive
HEXA (hexosaminidase subunit alpha): #1 0.62 inactive; #2 0.137 inactive; #3 0.96 inactive
FAH (fumarylacetoacetate hydrolase): #1 0.55 inactive; #2 0.123 inactive; #3 -0.0832 inactive; #4 -0.501 inactive
CRYGD (crystallin gamma D): #1 -0.372 inactive; #2 -0.161 inactive; #3 -0.128 inactive
SDCBP (syndecan binding protein): #1 -0.0635 inactive; #2 -0.277 inactive; #3 -0.154 inactive
ADAM33 (ADAM metallopeptidase domain 33): #1 1.02 inactive; #2 -0.169 inactive; #3 -0.376 inactive; #4 -0.349 inactive
SYVN1 (synoviolin 1): #1 -0.257 inactive; #2 0.296 inactive; #3 -0.134 inactive; #4 -0.0893 inactive
TRPC7: #1 -0.257 inactive; #2 0.00557 inactive; #3 -0.531 inactive; #4 1.06 inactive
SLC25A12: #1 -0.0886 inactive; #2 0.173 inactive; #3 -0.103 inactive; #4 -0.119 inactive
DGKE (diacylglycerol kinase epsilon): #1 0.131 inactive; #2 -0.101 inactive; #3 -0.159 inactive; #4 -0.505 inactive
BCAR3 (BCAR3 adaptor protein, NSP family member): #1 0.258 inactive; #2 -0.487 inactive; #3 -0.484 inactive; #4 -0.314 inactive
BLK (BLK proto-oncogene, Src family tyrosine kinase): #1 -0.246 inactive; #2 -0.41 inactive; #3 -0.354 inactive; #4 -0.169 inactive
HACE1: #1 0.258 inactive; #2 -0.21 inactive; #3 -0.236 inactive; #4 0.366 inactive
PHEX (phosphate regulating endopeptidase X-linked): #1 -0.139 inactive; #2 -0.318 inactive; #3 -0.639 inactive; #4 -0.482 inactive
ANP32E (acidic nuclear phosphoprotein 32 family member E): #1 -0.417 inactive; #2 -0.0514 inactive; #3 -0.302 inactive; #4 0.0233 inactive
